These are yes or no findings as the source states them, for the method shown. Binding seen in cells or lysates may run through a third protein. A result given as binding can be weak or reduced; the word gives no strength.
Assays:
[1] = target: Flag-tagged human YAP (human) (UniProt P46937); assay: co-IP; HEK293T transfected with Flag-YAP or empty vector for 36 h; lysate on anti-Flag M2 magnetic beads, eluted with 3X-Flag peptide; western blot for PP2Ac
[2] = target: MST1, endogenous in HUVECs (human (endogenous in HUVEC)) (UniProt Q13043); assay: co-IP; endogenous MST1 and PP2Ac in HUVECs stimulated with 50 ng/mL VEGF for 2 h; the precipitating antibody is not told
[3] = target: phospho-YAP (pYAP), endogenous in HUVECs (human (endogenous in HUVEC)) (UniProt P46937); assay: co-IP; endogenous proteins, HUVEC lysate (mild lysis buffer); anti-pYAP antibody overnight, protein A/G magnetic beads; cells with or without LatB for 2 h

Amino acid sequences for entries named in this document (tags omitted). A change or cut given only in a name is not applied to a line headed by its entry.
UniProt P46937: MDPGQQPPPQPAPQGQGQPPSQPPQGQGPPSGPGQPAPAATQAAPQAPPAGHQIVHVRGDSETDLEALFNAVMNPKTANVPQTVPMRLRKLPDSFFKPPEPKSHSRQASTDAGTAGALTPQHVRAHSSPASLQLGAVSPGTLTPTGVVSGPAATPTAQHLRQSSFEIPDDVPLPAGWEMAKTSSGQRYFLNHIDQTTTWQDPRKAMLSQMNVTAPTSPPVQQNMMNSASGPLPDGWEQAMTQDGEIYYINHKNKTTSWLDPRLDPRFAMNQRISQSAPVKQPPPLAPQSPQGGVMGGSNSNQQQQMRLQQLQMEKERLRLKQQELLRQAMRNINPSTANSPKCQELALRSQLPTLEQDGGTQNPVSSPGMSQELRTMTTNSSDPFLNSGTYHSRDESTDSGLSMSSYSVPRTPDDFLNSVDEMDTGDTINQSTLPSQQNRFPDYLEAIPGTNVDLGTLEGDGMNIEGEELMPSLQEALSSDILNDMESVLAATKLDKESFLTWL
UniProt Q13043: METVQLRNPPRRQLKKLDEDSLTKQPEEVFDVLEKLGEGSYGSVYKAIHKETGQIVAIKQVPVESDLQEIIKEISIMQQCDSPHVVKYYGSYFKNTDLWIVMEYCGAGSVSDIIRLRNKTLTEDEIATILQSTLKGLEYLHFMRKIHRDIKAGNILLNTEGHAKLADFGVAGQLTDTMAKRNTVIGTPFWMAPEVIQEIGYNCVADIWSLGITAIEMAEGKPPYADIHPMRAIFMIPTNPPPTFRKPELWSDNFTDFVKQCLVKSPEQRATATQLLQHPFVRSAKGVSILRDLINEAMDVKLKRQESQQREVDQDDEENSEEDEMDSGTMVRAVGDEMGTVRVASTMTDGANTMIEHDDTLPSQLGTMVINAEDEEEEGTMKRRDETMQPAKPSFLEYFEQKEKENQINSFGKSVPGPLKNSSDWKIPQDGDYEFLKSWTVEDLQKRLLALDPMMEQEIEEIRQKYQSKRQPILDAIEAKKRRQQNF
UniProt P67775: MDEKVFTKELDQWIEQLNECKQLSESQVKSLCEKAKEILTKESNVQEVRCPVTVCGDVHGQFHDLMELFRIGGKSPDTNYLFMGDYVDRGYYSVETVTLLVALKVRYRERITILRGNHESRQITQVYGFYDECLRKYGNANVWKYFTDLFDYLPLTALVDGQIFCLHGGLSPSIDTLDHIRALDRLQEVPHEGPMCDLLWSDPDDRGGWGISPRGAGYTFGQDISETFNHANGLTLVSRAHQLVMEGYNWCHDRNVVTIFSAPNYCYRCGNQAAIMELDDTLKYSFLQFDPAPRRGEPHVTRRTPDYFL

| binding [1] | binding [2] | binding [3] | Substance |
| --- | --- | --- | --- |
| binds | – | – | PP2A catalytic C subunit (PP2Ac), endogenous in HEK293T (from UniProt P67775) (enzyme) |
| – | binds | binds | PP2A catalytic C subunit (PP2Ac), endogenous in HUVECs (from UniProt P67775) (enzyme) |

Source: PMC8158299
